Patent US6027877

Sequences of proteins named here, by UniProt entry; tags and fusion partners are left off. A change or cut given only in a name is not applied to a line headed by its entry.
UniProt P23909: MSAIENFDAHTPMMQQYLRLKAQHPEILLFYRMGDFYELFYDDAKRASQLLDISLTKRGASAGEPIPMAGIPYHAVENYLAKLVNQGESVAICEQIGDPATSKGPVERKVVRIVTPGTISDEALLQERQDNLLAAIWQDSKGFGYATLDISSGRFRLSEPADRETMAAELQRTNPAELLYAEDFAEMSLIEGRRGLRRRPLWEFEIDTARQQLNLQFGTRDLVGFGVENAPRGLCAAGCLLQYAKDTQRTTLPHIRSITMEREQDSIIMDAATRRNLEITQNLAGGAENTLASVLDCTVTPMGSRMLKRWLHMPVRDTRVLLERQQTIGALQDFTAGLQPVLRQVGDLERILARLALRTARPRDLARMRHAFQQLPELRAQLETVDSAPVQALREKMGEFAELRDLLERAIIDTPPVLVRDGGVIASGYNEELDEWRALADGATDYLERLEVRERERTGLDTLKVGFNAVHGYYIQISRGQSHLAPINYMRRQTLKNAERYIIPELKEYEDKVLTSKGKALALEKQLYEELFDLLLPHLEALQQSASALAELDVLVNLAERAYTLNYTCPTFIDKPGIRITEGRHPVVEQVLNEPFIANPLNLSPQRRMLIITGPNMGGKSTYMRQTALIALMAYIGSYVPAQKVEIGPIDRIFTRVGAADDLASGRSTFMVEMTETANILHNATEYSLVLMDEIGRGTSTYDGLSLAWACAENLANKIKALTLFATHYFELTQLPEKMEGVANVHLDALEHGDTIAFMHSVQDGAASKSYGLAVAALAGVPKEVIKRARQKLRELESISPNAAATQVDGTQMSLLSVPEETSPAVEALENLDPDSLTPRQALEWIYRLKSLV

Molecular target: MutS (Escherichia coli) (UniProt P23909)
Assay: competition with a labelled probe
Conditions: did not compete until 500 ng, if at all, against 5 ng biotinylated mismatch 30-mer; variant of beta-globin 30-mer fully matched duplex

Does “GCACCTGACTCCTGGGGAGAAGTCTGCCGT (double strand) [unlabeled beta-globin 30-mer fully matched duplex]” bind?
Result: binds more weakly

Weaker means in comparison with the reference protein, sequence or condition of that experiment.
